The other results are listed elsewhere or left out. Shown are side measurements of this screen, not its main read-out; they come without a call. Most of these compounds were active or inconclusive in the main read-out, so they are no random draw. Words in brackets tell the shape of the fitted curve; partial curves, single points and poor fits give uncertain potencies.
Experiment: qHTS Assay to Find Inhibitors of Chronic Active B-Cell Receptor Signaling
Conditions: ABC-DLBCL IkBa-CBG/CBR reporter, luminescence ratio (green luciferase fused to IkBa over red control in TMD8 lymphoma cells), 4 h
Method in brief: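 TMD8 ABC-DLBCL cells carrying doxycycline-inducible green luciferase fused to IkappaBalpha plus unfused red luciferase were exposed to compounds (up to 46 uM) for 4 hrs at 37C. Activity came from the overlap-corrected green/red luminescence ratio.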

[1] = measured here: CBR red luminescence, cell number

| Structure (SMILES) | AC50 [1] | AC50 (measured here: IkBa-CBG green luminescence) |
| --- | --- | --- |
| CCOc1ccc(N(CC)C(=O)COc2cc(=O)n(CC)c3ccccc23)cc1 | 20.6 µM [falling, single point] |  |
| Nc1nc(F)nc2c1ncn2[C@@H]1O[C@H](CO)[C@@H](O)[C@@H]1O | 20.6 µM [rising, single point] |  |
| CC1CCc2sc(C(=O)NC(C)C3CCCO3)cc2C1 (stereo not drawn) | 6.31 µM [falling, partial curve, poor fit] |  |
| Cc1ccc(CN(C)Cc2cc(=O)oc3cc(C)c(Cl)cc23)cc1 | 5.01 µM [rising, full curve, poor fit] |  |
| COc1ccccc1-c1ccc(=O)n(CC(=O)Nc2ccc(C(=O)N3CCCC3)cc2)n1 | 11.2 µM [rising, partial curve, poor fit] |  |
| Cc1c(OCC(F)(F)F)ccnc1CS(=O)c1nc2ccccc2[nH]1 (stereo not drawn) | 3.98 µM [rising, partial curve, poor fit] |  |
| CCc1ccccc1NC1=CC(=O)CC(C)(C)C1 | 28.2 µM [rising, single point] |  |
| CCN(CC)S(=O)(=O)c1ccc(NC(=O)C2c3ccccc3Oc3ccccc32)cc1 | 20.6 µM [rising, partial curve, poor fit] |  |
| COc1cccc2sc(NN)nc12 | 10 µM [falling, partial curve, poor fit] |  |
| O=C(c1cccc(F)c1)N1CCN(c2ccc([N+](=O)[O-])c3cccnc23)CC1 | 12.6 µM [rising, partial curve, poor fit] |  |
| COc1ccccc1NC(=O)CSc1nc2ccccc2cc1Cc1ccccc1 | 3.55 µM [falling, full curve] |  |
| CC(C)Nc1nc(Cl)nc(NC2CCCCC2)n1 | 15.8 µM [falling, partial curve, poor fit] |  |
| O=C(Nc1ccc2[nH]ncc2c1)c1cccc(F)c1 | 35.5 µM [falling, single point] |  |
| COc1ccc(-c2cc(OC)c3c(C)oc(C)c3c(=O)c2)cc1OC | 35.5 µM [falling, single point] |  |
| CNC(=O)c1c(NC(=O)c2ccc(S(=O)(=O)N3CCCC3)cc2)sc2c1CCN(C(C)C)C2 | 0.631 µM [rising, full curve, poor fit] |  |
| CCCCN(CC)C(=O)c1ccc2c(c1)OCO2 | 1.46 µM [rising, full curve, poor fit] |  |
| Cc1ccccc1-n1c(SCc2ccccn2)nc2n[nH]c(C)c2c1=N | 6.51 µM [falling, partial curve, poor fit] |  |
| COCCN(Cc1cc2cc(C)cc(C)c2nc1Cl)C(=O)Nc1ccccc1 |  | 14.6 µM [falling, partial curve] |

Reprinted from the entries so far, two compounds:

| Structure (SMILES) | AC50 [1] | AC50 (measured here: IkBa-CBG green luminescence) |
| --- | --- | --- |
| COc1ccccc1-c1ccc(=O)n(CC(=O)Nc2ccc(C(=O)N3CCCC3)cc2)n1 | 11.2 µM [rising, partial curve, poor fit] |  |
| Cc1c(OCC(F)(F)F)ccnc1CS(=O)c1nc2ccccc2[nH]1 (stereo not drawn) | 3.98 µM [rising, partial curve, poor fit] |  |

From PubChem BioAssay AID493014 (National Center for Advancing Translational Sciences (NCATS), 2011)
